# From the supplement of paper PMC8728848
# This is one part of the list.
# B1: Mincle (Bos taurus) (protein)
# chain: MNSSTSPASQTERRCFSFQLFSWAIAGTSILLLSACFITRCVVTYSIFQLCDEKKFQPPGDSMELSCYNDGSGSVKNCCPLKWFHFQSSCYLFSPDTMSWRASLKNCSSMGAHLVVINTQEEQEFLYYTKPRKKEFYIGLTDQVTEGQWQWVDGTPFTKSLSFWDAGEPNNLVIVEDCATIRDSSNPRQNWNDVPCFFNMFRVCEMPERKI
# Experiments:
# Assay in all cases: glycan array binding signal (z-score within array); higher = stronger binding
# Details in all cases: glycan notation: IUPAC condensed, linker removed
# [1] = target: Gal(b1-4)GlcNAc(b1-3)Gal(b1-4)GlcNAc(b1-6)[Gal(b1-3)]GalNAc
# In short: (§1)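 Glycan array binding is given as a within-array Z-score, which can be read as non-binding when negative. The arrays, 3228 of them, came from the Consortium for Functional Glycomics database and were retained only where the protein sequence was available. Z-scores were averaged across arrays of the same protein sequence at different concentrations or buffers and across linkers.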
# [2] = target: Gal(b1-4)GlcNAc(b1-3)Gal(b1-4)[Fuc(a1-3)]GlcNAc(b1-3)Gal(b1-4)[Fuc(a1-3)]GlcNAc
# In short: as §1
# [3] = target: Gal(b1-4)GlcNAc(b1-3)GalNAc
# In short: as §1
# [4] = target: Gal(b1-4)GlcNAc(b1-3)[Fuc(a1-3)GlcNAc(b1-6)]Gal(b1-4)Glc
# In short: as §1
# [5] = target: Gal(b1-4)GlcNAc(b1-3)[Gal(b1-4)GlcNAc(b1-6)]Gal(b1-4)GlcNAc
# In short: as §1
# [6] = target: Gal(b1-4)GlcNAc(b1-3)[GlcNAc(b1-6)]Gal(b1-4)GlcNAc
# In short: as §1
# [7] = target: Gal(b1-4)GlcNAc(b1-6)Gal(b1-4)GlcNAc
# In short: as §1
# [8] = target: Gal(b1-4)GlcNAc(b1-6)GalNAc
# In short: as §1
# [9] = target: Gal(b1-4)GlcNAc(b1-6)[Gal(b1-3)]GalNAc
# In short: as §1
# [10] = target: Gal(b1-4)GlcNAc(b1-6)[Gal(b1-4)GlcNAc(b1-3)]GalNAc
# In short: as §1
# Gal(b1-4)GlcNAc6P = target: Gal(b1-4)GlcNAc6P
# In short: as §1
# Gal(b1-6)Gal = target: Gal(b1-6)Gal
# In short: as §1
# Gal3S(b1-3)GalNAc = target: Gal3S(b1-3)GalNAc
# In short: as §1
# Gal3S(b1-3)GlcNAc = target: Gal3S(b1-3)GlcNAc
# In short: as §1
# [11] = target: Gal3S(b1-3)[Fuc(a1-4)]GlcNAc
# In short: as §1
# Gal3S(b1-4)Glc = target: Gal3S(b1-4)Glc
# In short: as §1
# Gal3S(b1-4)Glc6S = target: Gal3S(b1-4)Glc6S
# In short: as §1
# Gal3S(b1-4)GlcNAc = target: Gal3S(b1-4)GlcNAc
# In short: as §1
# [12] = target: Gal3S(b1-4)[Fuc(a1-3)]Glc6S
# In short: as §1
# [13] = target: Gal3S(b1-4)[Fuc(a1-3)]GlcNAc
# In short: as §1
# [14] = target: Gal3S(b1-4)[Fuc(a1-3)]GlcNAc6S
# In short: as §1
# Gal3S4S(b1-4)GlcNAc = target: Gal3S4S(b1-4)GlcNAc
# In short: as §1
# Gal3S6S(b1-4)GlcNAc = target: Gal3S6S(b1-4)GlcNAc
# In short: as §1
# Gal3S6S(b1-4)GlcNAc6S = target: Gal3S6S(b1-4)GlcNAc6S
# In short: as §1
# Gal4S(b1-4)GlcNAc = target: Gal4S(b1-4)GlcNAc
# In short: as §1
# Gal4S6S(b1-4)GlcNAc = target: Gal4S6S(b1-4)GlcNAc
# In short: as §1
# Gal6P(b1-4)GlcNAc = target: Gal6P(b1-4)GlcNAc
# In short: as §1
# Gal6S(b1-3)GlcNAc = target: Gal6S(b1-3)GlcNAc
# In short: as §1
# Gal6S(b1-3)GlcNAc6S = target: Gal6S(b1-3)GlcNAc6S
# In short: as §1
# Gal6S(b1-4)Glc = target: Gal6S(b1-4)Glc
# In short: as §1
# Gal6S(b1-4)Glc6S = target: Gal6S(b1-4)Glc6S
# In short: as §1
# Gal6S(b1-4)GlcNAc = target: Gal6S(b1-4)GlcNAc
# In short: as §1
# Gal6S(b1-4)GlcNAc6S = target: Gal6S(b1-4)GlcNAc6S
# In short: as §1
# GalNAc(a1-3)Gal = target: GalNAc(a1-3)Gal
# In short: as §1
# GalNAc(a1-3)GalNAc = target: GalNAc(a1-3)GalNAc
# In short: as §1
# [15] = target: GalNAc(a1-3)GalNAc(b1-3)Gal(a1-4)Gal(b1-4)Glc
# In short: as §1
# [16] = target: GalNAc(a1-3)GalNAc(b1-3)Gal(a1-4)Gal(b1-4)GlcNAc
# In short: as §1
# GalNAc(b1-3)Gal = target: GalNAc(b1-3)Gal
# In short: as §1
# [17] = target: GalNAc(b1-3)Gal(a1-4)Gal(b1-4)GlcNAc
# In short: as §1
# [18] = target: GalNAc(b1-3)Gal(a1-4)Gal(b1-4)GlcNAc(b1-3)Gal(b1-4)Glc
# In short: as §1
# [19] = target: GalNAc(b1-3)Gal(a1-6)Gal(b1-4)Glc
# In short: as §1
# GalNAc(b1-3)GalNAc = target: GalNAc(b1-3)GalNAc
# In short: as §1
# GalNAc(b1-3)GlcNAc = target: GalNAc(b1-3)GlcNAc
# In short: as §1
# GalNAc(b1-4)Gal(b1-4)Glc = target: GalNAc(b1-4)Gal(b1-4)Glc
# In short: as §1
# GalNAc(b1-4)GlcNAc = target: GalNAc(b1-4)GlcNAc
# In short: as §1
binder,measurement,setting,value
B1,glycan array binding signal (z-score),[1],0.9
same,glycan array binding signal (z-score),[2],-0.437
same,glycan array binding signal (z-score),[3],0.177
same,glycan array binding signal (z-score),[4],-0.38
same,glycan array binding signal (z-score),[5],-1.01
same,glycan array binding signal (z-score),[6],-1.11
same,glycan array binding signal (z-score),[7],-0.745
same,glycan array binding signal (z-score),[8],0.406
same,glycan array binding signal (z-score),[9],-0.8
same,glycan array binding signal (z-score),[10],-0.524
same,glycan array binding signal (z-score),Gal(b1-4)GlcNAc6P,-0.685
same,glycan array binding signal (z-score),Gal(b1-6)Gal,-0.928
same,glycan array binding signal (z-score),Gal3S(b1-3)GalNAc,-0.61
same,glycan array binding signal (z-score),Gal3S(b1-3)GlcNAc,-0.963
same,glycan array binding signal (z-score),[11],3.35
same,glycan array binding signal (z-score),Gal3S(b1-4)Glc,-0.057
same,glycan array binding signal (z-score),Gal3S(b1-4)Glc6S,-0.359
same,glycan array binding signal (z-score),Gal3S(b1-4)GlcNAc,-0.819
same,glycan array binding signal (z-score),[12],1.34
same,glycan array binding signal (z-score),[13],0.049
same,glycan array binding signal (z-score),[14],-0.084
same,glycan array binding signal (z-score),Gal3S4S(b1-4)GlcNAc,-1.45
same,glycan array binding signal (z-score),Gal3S6S(b1-4)GlcNAc,-0.018
same,glycan array binding signal (z-score),Gal3S6S(b1-4)GlcNAc6S,-0.175
same,glycan array binding signal (z-score),Gal4S(b1-4)GlcNAc,-1.55
same,glycan array binding signal (z-score),Gal4S6S(b1-4)GlcNAc,-0.69
same,glycan array binding signal (z-score),Gal6P(b1-4)GlcNAc,-0.035
same,glycan array binding signal (z-score),Gal6S(b1-3)GlcNAc,-0.342
same,glycan array binding signal (z-score),Gal6S(b1-3)GlcNAc6S,-0.278
same,glycan array binding signal (z-score),Gal6S(b1-4)Glc,-0.119
same,glycan array binding signal (z-score),Gal6S(b1-4)Glc6S,-0.107
same,glycan array binding signal (z-score),Gal6S(b1-4)GlcNAc,-0.285
same,glycan array binding signal (z-score),Gal6S(b1-4)GlcNAc6S,-0.584
same,glycan array binding signal (z-score),GalNAc(a1-3)Gal,-1.18
same,glycan array binding signal (z-score),GalNAc(a1-3)GalNAc,0.166
same,glycan array binding signal (z-score),[15],0.275
same,glycan array binding signal (z-score),[16],-0.57
same,glycan array binding signal (z-score),GalNAc(b1-3)Gal,-0.19
same,glycan array binding signal (z-score),[17],0.003
same,glycan array binding signal (z-score),[18],0.197
same,glycan array binding signal (z-score),[19],-1.02
same,glycan array binding signal (z-score),GalNAc(b1-3)GalNAc,0.381
same,glycan array binding signal (z-score),GalNAc(b1-3)GlcNAc,-0.818
same,glycan array binding signal (z-score),GalNAc(b1-4)Gal(b1-4)Glc,0.029
same,glycan array binding signal (z-score),GalNAc(b1-4)GlcNAc,-0.149

# Given as tab-separated lines: entries from further up.
binder	measurement	setting	value
B1	glycan array binding signal (z-score)	[9]	-0.8
same	glycan array binding signal (z-score)	Gal(b1-6)Gal	-0.928
same	glycan array binding signal (z-score)	[11]	3.35
same	glycan array binding signal (z-score)	[19]	-1.02
